The campaign covered roughly 340,000 compounds. About 170 (0.05%) were called active. Inconclusive results, whose numbers are uncertain, are shown with a selection of clear calls. Calls come from the whole dose curve; as a rule, active = well fitted inhibition curve with a large enough effect in the signal ratio, with a control signal flat (not every such curve was filed as active); inconclusive = small, poorly fitted or top-dose-only effect, or effect the other way, or a change in a side signal; inactive = flat fitted curve, though single readings scatter; the % refers to the signal ratio. A potency beside an inconclusive call is a rough fit, not a confirmed value.
Assay: qHTS Assay to Find Inhibitors of Chronic Active B-Cell Receptor Signaling;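 for activity change, negative = inhibition: plate controls were basal doxycycline-induced cells for no effect and cells given 10 µM MG132 for full effect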
Settings: ABC-DLBCL IkBa-CBG/CBR reporter, luminescence ratio (green luciferase fused to IkBa over red control in TMD8 lymphoma cells), 4 h; activity change, negative = inhibition: at 46.1 µM (top of the series)
In short: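 Compounds up to 46 uM were incubated four hours with TMD8 cells whose green CBG68 luciferase is fused to IkappaBalpha; red CBR luminescence normalised the signal, and concentration-effect curves were fitted to fusion, red and ratio data.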
Potency is the fitted concentration of half-maximal effect.

| Structure (SMILES) | activity change, negative = inhibition | Potency |
| --- | --- | --- |
| O=C(CSc1nnc(C2CC2)n1CC1CCCO1)Nc1cccc(Cl)c1 (stereo not given) | inconclusive: 3.58% | – |
| C[C@@H]1C[C@H]2[C@@H]3C[C@H](F)C4=CC(=O)C=C[C@]4(C)[C@@]3(F)[C@@H](O)C[C@]2(C)[C@@]1(O)C(=O)COC(=O)C(C)(C)C | inconclusive: -7.16% | – |
| O=C(O)CCCCc1nc2ccccc2s1 | – | inconclusive: 0.291 µM [rising, full curve, poor fit] |
| O=C1CN(C(=O)c2ccc(Cl)c([N+](=O)[O-])c2)c2ccccc2N1 | inactive | – |
| Cc1ccc(C)c(NS(=O)(=O)c2cc(Br)cnc2N)c1 | – | inconclusive: 20 µM [falling, partial curve, poor fit] |
| COc1cccc(NC(=O)CN(C)C(=O)CC2CCCCC2)c1 | inconclusive: 6.73% | – |
| O=[N+]([O-])c1ccc2nc(-c3ccc(Cl)cc3)[nH]c2c1 | – | inconclusive: 29.1 µM [falling, single point] |
| CC12CCC(C(=O)NCc3ccccc3Cl)(C(Br)C1=O)C2(C)C (stereo not given) | inconclusive: 9.46% | – |
| CC(=O)c1sc(NC(=O)c2cnc(Cl)c(Cl)c2)nc1C | inconclusive: 15.8% | – |
| Cc1ccc(C(=O)O)cc1NC(=O)c1ccc(Cn2nc(C)c(Cl)c2C)o1 | – | inconclusive: 4.47 µM [falling, full curve, poor fit] |
| COCCCNCC(=O)Nc1sc(C)c(C)c1C(=O)OC | inconclusive: 1.52% | – |
| Cn1c(=O)cc(OCCCC(=O)NCCC2=CCCCC2)c2ccccc21 | inconclusive: -27.6% | – |
| O=C(Nc1cccc(-c2cnc3ccccc3n2)c1)c1ccccc1 | inactive | – |
| Cn1c2ccccc2c2cc(/C=N/NC(=O)c3ccc(N)cc3)ccc21 | – | inconclusive: 12.6 µM [falling, partial curve] |
| CC(=O)[C@@H]1[C@@H]2C(=O)N(c3ccc(F)c(Cl)c3)C(=O)[C@@H]2C2c3ccccc3C=CN21 (stereo not given in full) | – | inconclusive: 6.51 µM [falling, partial curve] |
| O=C(N/N=C/c1cccc([N+](=O)[O-])c1)c1c[nH]c2ccccc12 | inconclusive: -3.5% | – |
| COc1ccc(S(=O)(=O)N2CCN(C(=O)c3ccc([N+](=O)[O-])o3)CC2)cc1 | inactive | – |
| c1ccc(-c2nc(N3CCCCCC3)c3ccccc3n2)nc1 | – | inconclusive: 25.1 µM [falling, single point] |
| Cc1nn(-c2ccccc2)c(/N=C/c2ccc(O)cc2)c1-c1ccccc1 | – | inconclusive: 29.1 µM [falling, single point] |
| Oc1ccc(C[C@@H]2CNCCN2CC2CCCCC2)cc1 | inactive | – |

Copied from the list:
Oc1ccc(C[C@@H]2CNCCN2CC2CCCCC2)cc1 – activity change, negative = inhibition: inactive
Cc1nn(-c2ccccc2)c(/N=C/c2ccc(O)cc2)c1-c1ccccc1 – Potency: inconclusive: 29.1 µM [falling, single point]
